Assay results reported in patent US20110182816A1.
No constants are given. Whether binding was seen depends on the method and setting. Some binding calls cover weakened binding; strength is not graded here.

Sequences of proteins named here, by UniProt entry; tags and fusion partners are left off. A change or cut given only in a name is not applied to a line headed by its entry.
UniProt P02749: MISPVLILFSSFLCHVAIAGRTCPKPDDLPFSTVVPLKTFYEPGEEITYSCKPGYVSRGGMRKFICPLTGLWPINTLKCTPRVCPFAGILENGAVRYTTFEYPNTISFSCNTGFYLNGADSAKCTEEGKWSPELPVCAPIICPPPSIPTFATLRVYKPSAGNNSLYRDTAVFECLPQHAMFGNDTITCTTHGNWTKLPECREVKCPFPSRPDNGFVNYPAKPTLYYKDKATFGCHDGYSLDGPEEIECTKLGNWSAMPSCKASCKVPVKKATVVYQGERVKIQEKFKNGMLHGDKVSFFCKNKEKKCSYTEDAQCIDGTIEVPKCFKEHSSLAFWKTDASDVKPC
UniProt P04114: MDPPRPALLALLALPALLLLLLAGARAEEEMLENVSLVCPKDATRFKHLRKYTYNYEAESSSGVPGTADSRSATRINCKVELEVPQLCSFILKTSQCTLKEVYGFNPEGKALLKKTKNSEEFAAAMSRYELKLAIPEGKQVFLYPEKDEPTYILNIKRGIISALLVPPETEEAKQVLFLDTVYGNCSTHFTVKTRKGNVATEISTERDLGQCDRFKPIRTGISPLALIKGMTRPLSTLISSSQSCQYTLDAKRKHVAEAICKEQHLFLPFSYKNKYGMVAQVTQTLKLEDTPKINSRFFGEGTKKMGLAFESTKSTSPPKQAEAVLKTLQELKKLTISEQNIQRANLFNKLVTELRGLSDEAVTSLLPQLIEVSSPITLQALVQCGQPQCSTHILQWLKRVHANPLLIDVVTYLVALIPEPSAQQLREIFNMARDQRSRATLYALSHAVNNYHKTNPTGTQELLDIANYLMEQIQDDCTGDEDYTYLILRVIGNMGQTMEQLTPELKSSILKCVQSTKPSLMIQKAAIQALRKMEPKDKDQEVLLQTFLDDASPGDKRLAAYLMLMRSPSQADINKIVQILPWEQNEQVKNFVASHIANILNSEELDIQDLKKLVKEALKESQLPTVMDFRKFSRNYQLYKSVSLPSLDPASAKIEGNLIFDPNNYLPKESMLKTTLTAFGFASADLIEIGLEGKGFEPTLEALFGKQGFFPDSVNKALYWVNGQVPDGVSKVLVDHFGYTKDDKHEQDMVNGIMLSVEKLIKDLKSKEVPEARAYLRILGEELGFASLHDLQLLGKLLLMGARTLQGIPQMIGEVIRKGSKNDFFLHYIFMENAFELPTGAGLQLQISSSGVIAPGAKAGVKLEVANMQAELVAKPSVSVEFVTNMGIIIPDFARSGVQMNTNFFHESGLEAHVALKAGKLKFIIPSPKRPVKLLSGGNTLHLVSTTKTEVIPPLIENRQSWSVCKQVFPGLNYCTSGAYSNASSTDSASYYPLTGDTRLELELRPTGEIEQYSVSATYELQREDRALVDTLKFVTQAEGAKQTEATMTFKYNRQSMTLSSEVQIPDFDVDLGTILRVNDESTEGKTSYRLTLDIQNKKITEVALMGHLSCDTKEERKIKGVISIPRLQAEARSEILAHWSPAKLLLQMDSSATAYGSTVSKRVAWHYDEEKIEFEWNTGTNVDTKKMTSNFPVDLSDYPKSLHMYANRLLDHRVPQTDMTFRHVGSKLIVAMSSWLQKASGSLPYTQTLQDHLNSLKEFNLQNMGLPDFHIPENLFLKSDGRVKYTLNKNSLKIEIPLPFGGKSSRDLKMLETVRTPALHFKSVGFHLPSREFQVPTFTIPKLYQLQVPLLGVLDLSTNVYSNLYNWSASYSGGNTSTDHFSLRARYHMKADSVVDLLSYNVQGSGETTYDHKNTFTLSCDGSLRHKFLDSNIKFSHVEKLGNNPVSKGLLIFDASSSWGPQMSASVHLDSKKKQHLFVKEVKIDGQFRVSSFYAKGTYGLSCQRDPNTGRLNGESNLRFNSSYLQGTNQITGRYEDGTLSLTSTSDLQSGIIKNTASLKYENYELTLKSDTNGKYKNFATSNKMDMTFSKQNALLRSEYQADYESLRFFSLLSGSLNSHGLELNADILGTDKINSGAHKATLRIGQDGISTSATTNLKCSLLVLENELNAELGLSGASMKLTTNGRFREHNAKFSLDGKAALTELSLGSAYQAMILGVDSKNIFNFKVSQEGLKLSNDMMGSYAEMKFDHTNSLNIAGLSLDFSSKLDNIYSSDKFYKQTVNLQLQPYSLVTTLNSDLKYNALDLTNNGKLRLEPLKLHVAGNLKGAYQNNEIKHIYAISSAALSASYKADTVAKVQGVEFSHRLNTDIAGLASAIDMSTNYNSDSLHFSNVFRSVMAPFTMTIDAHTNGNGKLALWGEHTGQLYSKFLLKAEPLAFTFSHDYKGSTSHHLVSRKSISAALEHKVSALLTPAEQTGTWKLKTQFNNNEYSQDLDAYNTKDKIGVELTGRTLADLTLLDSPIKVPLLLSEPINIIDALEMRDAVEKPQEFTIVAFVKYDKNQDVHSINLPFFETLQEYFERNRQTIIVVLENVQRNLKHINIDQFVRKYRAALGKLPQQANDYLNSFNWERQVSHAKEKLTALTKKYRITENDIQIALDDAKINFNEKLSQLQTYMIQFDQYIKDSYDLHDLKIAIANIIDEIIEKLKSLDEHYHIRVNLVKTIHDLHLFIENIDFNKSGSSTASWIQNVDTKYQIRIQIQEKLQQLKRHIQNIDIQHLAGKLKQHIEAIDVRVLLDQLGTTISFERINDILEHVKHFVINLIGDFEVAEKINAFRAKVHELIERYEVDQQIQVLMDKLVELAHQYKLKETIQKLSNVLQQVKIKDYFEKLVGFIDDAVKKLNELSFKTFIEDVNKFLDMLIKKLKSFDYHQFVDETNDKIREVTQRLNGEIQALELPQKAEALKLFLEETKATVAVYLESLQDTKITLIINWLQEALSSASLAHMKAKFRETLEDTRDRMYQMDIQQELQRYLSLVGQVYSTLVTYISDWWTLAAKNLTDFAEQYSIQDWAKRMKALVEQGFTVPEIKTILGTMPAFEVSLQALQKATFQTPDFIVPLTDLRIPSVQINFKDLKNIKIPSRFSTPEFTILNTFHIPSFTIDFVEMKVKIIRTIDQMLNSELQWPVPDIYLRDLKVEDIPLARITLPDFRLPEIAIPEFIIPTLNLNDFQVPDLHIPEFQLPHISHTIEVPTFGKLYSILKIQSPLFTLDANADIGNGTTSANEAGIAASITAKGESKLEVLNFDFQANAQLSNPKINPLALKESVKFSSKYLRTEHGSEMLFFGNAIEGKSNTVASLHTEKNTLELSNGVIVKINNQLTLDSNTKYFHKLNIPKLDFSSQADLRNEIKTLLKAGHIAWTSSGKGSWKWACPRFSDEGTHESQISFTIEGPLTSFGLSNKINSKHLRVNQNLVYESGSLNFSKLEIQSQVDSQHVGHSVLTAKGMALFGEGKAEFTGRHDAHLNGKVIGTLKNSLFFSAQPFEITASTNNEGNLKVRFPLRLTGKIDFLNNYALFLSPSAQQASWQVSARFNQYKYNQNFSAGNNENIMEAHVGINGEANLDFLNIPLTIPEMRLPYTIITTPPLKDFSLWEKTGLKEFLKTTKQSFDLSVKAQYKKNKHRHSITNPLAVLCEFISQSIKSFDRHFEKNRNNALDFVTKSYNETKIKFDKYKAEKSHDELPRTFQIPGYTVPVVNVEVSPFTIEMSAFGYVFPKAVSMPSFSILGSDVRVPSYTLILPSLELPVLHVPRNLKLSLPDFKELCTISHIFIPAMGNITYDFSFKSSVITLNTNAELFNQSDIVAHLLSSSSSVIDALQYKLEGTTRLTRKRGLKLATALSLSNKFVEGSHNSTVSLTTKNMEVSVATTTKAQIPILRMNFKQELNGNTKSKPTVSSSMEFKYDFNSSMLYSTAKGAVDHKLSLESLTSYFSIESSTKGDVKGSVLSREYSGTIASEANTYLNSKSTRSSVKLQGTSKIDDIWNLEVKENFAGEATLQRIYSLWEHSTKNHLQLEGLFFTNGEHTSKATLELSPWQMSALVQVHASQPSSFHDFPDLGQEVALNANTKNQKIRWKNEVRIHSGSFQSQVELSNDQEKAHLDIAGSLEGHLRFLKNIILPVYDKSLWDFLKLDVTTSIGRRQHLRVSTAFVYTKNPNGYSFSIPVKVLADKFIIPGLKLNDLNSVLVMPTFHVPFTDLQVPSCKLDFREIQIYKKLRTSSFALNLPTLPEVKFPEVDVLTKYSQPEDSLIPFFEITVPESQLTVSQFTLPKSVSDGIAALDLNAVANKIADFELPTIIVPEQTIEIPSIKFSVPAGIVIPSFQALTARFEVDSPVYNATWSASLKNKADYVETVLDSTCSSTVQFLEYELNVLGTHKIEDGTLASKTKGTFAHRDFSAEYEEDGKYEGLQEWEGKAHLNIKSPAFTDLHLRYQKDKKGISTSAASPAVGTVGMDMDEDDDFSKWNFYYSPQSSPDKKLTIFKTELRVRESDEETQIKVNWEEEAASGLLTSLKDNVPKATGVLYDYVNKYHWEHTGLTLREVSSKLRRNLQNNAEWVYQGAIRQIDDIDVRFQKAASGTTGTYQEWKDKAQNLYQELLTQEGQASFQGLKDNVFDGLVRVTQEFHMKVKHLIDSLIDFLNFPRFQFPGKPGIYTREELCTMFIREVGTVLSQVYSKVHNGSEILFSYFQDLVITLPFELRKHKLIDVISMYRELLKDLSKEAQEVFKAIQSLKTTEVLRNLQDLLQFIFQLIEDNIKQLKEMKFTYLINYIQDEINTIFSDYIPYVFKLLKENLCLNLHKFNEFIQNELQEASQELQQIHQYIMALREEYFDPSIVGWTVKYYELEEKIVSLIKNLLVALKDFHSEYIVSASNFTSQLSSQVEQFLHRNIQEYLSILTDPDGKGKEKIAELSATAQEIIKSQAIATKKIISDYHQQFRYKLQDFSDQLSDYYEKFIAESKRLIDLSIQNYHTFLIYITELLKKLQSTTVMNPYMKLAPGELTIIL

Experiments:
[1] = target: T1, human oxidized LDL/β2GPI complex (human) (UniProt P02749+P04114); experiment: inhibition ELISA with free antigen
[2] = target: T1, human oxidized LDL/β2GPI complex (human); experiment: ELISA, antibody on immobilized oxidized LDL/β2GPI complex
[3] = target: T1, human oxidized LDL/β2GPI complex (human); experiment: ELISA, plate coated with 1 µg/ml oxidized LDL/β2GPI
[4] = target: T1, human oxidized LDL/β2GPI complex (human); experiment: competitive inhibition ELISA with free antigen (FIG. 3)
[5] = target: T1, human oxidized LDL/β2GPI complex (human); experiment: hybridoma screening ELISA on coated oxidized LDL/β2GPI complex
[6] = target: T1, human oxidized LDL/β2GPI complex (human); experiment: competitive inhibition ELISA, free oxidized LDL/β2GPI complex as competitor
[7] = target: T1, human oxidized LDL/β2GPI complex (human); experiment: competitive inhibition ELISA, free oxidized LDL/β2GPI complex as competitor against immobilized oxidized LDL/β2GPI (grade of inhibition)

Measured: binding

B1: antibody 3H3 (antibody, IgG2b, V domains shown)
VH: EVQLVESGGGLVKPGGSLKLSCAASGFTFSSYAMSWARQTPEKRLEWVATISSGGSYTYYPDSVRGRFTISRDNAKNTLYLQMCSLRSEDTAMYYCARFDGYYAMDYWGQGTSVTVSS
VL: DIVMTQSHKFMSTSVGDRVSITCKASQDVGSAVAWYQQKPGQSPKLLIYWASTRHTGVPDRFTGSGSGTDFTLTISSLQSEDLADYFCQQYSSYPLTFGSGTKLEIK
binds: all assays above
